Assay results reported in article PMC10226619.
No constants are given. Whether binding was seen depends on the method and setting. In cells and extracts the contact can be indirect. A yes stands for co-enrichment or nearness to the bait. Other partners may have been found. For part of these data: Where a sequence is shown, tags or fusion partners need not be part of it.

Chains of the proteins cited; added tags and fusions are not shown.
UniProt P35177: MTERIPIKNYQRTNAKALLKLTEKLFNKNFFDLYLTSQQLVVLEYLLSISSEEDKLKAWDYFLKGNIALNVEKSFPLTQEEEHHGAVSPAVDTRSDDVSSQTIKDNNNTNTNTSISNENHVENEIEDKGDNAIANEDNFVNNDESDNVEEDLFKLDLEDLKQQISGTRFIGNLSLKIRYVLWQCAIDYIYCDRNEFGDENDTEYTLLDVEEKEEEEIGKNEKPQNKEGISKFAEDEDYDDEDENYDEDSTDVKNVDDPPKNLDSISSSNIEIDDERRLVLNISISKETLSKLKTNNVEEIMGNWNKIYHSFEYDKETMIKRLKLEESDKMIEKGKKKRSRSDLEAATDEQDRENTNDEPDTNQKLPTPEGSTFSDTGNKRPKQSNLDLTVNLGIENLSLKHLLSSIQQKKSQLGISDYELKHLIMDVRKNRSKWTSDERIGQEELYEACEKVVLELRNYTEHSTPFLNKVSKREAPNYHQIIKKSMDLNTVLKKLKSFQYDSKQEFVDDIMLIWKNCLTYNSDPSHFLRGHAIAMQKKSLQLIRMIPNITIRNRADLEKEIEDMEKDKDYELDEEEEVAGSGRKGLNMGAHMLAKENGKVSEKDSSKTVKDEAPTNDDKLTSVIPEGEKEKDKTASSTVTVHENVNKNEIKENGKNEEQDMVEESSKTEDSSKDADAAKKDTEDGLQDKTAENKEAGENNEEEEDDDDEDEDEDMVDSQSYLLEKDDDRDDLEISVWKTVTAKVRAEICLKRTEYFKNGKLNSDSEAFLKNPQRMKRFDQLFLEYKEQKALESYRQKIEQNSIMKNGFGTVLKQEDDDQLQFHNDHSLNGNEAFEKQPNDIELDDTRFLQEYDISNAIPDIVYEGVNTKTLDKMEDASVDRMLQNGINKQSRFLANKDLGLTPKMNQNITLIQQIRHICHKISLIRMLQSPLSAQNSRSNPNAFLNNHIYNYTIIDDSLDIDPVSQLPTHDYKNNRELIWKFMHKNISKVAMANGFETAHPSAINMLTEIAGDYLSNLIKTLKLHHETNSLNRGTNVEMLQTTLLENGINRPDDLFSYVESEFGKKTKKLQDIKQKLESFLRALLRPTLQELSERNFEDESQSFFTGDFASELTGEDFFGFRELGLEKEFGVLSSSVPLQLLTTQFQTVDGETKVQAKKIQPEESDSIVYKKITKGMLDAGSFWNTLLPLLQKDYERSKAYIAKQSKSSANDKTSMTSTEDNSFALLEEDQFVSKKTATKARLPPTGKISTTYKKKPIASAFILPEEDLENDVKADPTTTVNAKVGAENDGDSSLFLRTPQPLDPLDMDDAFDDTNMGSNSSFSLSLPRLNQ
UniProt Q03330: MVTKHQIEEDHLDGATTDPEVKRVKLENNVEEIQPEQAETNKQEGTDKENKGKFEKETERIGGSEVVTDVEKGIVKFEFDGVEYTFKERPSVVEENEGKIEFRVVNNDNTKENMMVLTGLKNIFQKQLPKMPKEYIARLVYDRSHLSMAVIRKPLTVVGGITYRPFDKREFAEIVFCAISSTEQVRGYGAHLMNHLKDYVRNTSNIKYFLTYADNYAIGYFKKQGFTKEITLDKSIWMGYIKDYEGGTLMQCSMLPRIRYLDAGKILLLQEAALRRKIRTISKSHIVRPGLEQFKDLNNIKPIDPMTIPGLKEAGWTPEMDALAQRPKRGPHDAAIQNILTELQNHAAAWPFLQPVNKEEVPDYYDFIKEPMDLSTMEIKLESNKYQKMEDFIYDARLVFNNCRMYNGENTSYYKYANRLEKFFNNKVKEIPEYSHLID

What was measured:
[1] = target: Spt7 with a C-terminal TAP tag (S. cerevisiae) (UniProt P35177); experiment: affinity purification with mass spectrometry; SAGA purified by Spt7-TAP from yeast with WT Ada2 (YCW14): IgG Sepharose, TEV cleavage, HiTrap Q; LC-MS/MS, total spectrum counts normalized to Spt7
[2] = target: T1, Ada2 with N terminal 3× FLAG tag (wild type) (S. cerevisiae) (UniProt Q02336); experiment: affinity purification with mass spectrometry; FLAG-Ada2 WT or ΔSWIRM from 2–4 mg yeast whole cell extract on ANTI-FLAG M2 affinity gel overnight at 4 °C, TBS washes; 3× FLAG peptide elution (TIMSTOF, 2 replicates) or on-resin trypsin digestion (TMT, 1 replicate); abundances normalized to Ada2
T1 sequence: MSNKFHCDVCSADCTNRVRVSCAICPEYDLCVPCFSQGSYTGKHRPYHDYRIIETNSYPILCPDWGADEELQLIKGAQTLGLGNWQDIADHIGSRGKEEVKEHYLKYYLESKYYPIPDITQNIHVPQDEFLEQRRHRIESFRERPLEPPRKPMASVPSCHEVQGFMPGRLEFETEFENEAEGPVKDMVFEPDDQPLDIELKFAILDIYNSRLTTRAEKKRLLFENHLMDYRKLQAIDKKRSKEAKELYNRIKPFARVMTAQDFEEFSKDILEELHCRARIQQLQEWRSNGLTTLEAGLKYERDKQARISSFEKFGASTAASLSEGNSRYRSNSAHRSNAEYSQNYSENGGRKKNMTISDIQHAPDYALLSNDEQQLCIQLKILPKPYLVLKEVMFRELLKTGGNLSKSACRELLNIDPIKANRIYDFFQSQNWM

[3] = target: T2, Ada2 ΔSWIRM (Δ residues 353–434) with 3xFlag on the N-terminus (S. cerevisiae) (UniProt Q02336); experiment: as above
T2 sequence: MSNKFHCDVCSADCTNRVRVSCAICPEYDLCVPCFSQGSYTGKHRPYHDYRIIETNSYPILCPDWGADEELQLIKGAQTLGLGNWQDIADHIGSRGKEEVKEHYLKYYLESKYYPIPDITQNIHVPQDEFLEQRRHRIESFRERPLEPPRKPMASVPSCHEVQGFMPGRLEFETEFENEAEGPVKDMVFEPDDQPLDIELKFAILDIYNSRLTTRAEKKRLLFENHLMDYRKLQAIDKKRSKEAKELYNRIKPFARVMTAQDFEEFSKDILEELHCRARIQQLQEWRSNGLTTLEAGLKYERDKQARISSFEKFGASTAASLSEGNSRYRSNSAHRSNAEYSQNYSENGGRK

binding [1]: binds
binding [2]: binds
binding [3]: binds
Substance: Gcn5 (endogenous) (from UniProt Q03330 1-439) (enzyme)
